# PubChem BioAssay AID1688 (National Center for Advancing Translational Sciences (NCATS), 2009)
# In all, about 220,000 compounds went through this assay and about 2,400 (1.1%) were called active. The shares of active, inactive and inconclusive entries below differ from those in the screen. Calls come from the whole dose curve; as a rule, active = well fitted inhibition curve with a large enough effect; inconclusive = small, poorly fitted or top-dose-only effect, or effect the other way; inactive = no such curve, though single readings can be large or run the other way. Where the call is inconclusive, the potency comes from a doubtful curve fit.
# Experiment: qHTS Multiplex Assay to Identify Dual Action Probes in a Cell Model of Huntington: Aggregate Formation (GFP); note: nearly all actives have a fitted effect of over 60% in size
# Details: PC12 HttQ103-GFP aggregates, Acumen cytometry, 40 h; activity change, negative = inhibition: at 46.1 µM (top of the series) unless noted
# Summary of the method: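 Read-out: GFP aggregate count by laser scanning cytometer (488 nm excitation, 500-530 nm emission, 1–25 µm objects >6 SD above background). Cells: PC12, inducible HTTex1-Q103-GFP, 100 nM tebufenozide; compounds titrated.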
# % is set by controls: 0 for no effect and ±100 for the full control effect; potency is the fitted concentration of half-maximal effect.
SMILES,Potency,"activity change, negative = inhibition"
COc1ccc2c(=O)c(-c3cnn(-c4ccccc4)c3)c(C)oc2c1,"inconclusive: 35.5 µM [inhibitor, single point]",
CCCCCCC1/C(=N/O)CCC1C(=O)OC (configuration not stated),active: 3.98 µM,
CN(C)CCCN(C(=O)CCSc1ccccc1)c1nc2cc3c(cc2s1)OCO3,"inconclusive: 25.1 µM [inhibitor, single point]",
O=C(NC1CCN(C(=O)N2c3ccccc3Sc3ccccc32)CC1)c1ccccc1F,,inactive: -20.7%
Cc1nccc2oc(=O)c(NC(=O)c3ccc(Cl)cc3)cc12,,inactive: -2.19%
c1ccc(-c2nc(NCC3CCCO3)c3ccccc3n2)nc1 (configuration not stated),"inconclusive: 22.4 µM [inhibitor, single point]",
COc1ccc(OCCn2c(C)c(/C=N/n3cnnc3)c3ccccc32)cc1,"inconclusive: 1.58 µM [activator, full curve, poor fit]",
O=C(c1ccccc1)c1ccc(OCC(O)CN2CCN(S(=O)(=O)N3CCCCC3)CC2)cc1 (configuration not stated),"inconclusive: 35.5 µM [inhibitor, single point]",
CCN1C(=O)S/C(=C/c2ccc(Sc3nc4ccccc4[nH]3)o2)C1=O,,inactive: -21.7%
COc1ccc(OC)c(C2CC(=O)N3CN(c4ccccc4F)CSC3=C2C#N)c1 (configuration not stated),,inactive: 2.41%
Cc1cccc(-n2ncc3c(N4CC(C)CC(C)C4)ncnc32)c1 (configuration not stated),active: 22.4 µM,
CN(C)/C=C/C(=O)c1cccc([N+](=O)[O-])c1,"inconclusive: 2.82 µM [activator, full curve, poor fit]",
CC1CCCC(n2c(=S)[nH]c3ccccc3c2=O)C1C (configuration not stated),"inconclusive: 11.2 µM [inhibitor, partial curve]",
Cc1cccc(-n2ncc3c(NCCN4CCOCC4)ncnc32)c1,,inactive: 1.8%
CCCCN(Cc1ccccc1)S(=O)(=O)c1cc(Br)cc2c1N(C(C)=O)C(C)C2 (configuration not stated),"inconclusive: 15.8 µM [inhibitor, single point]",
COc1ccc2nc(SCC(C)=O)c(C#N)cc2c1,,inactive: 0.817%
CC1=Nc2ccccc2N=C(NC(=O)CSc2nnnn2-c2ccccc2)C1c1ccccc1 (configuration not stated),,inactive: -2.38%
CNc1c([N+](=O)[O-])cnn1-c1ccccc1Cl,,inactive: 29.3%
CCC(=O)NC(c1ccccc1OC)c1ccc2cccnc2c1O (configuration not stated),active: 3.16 µM,
N#Cc1ccccc1Sc1ccccc1C(=O)Nc1ccc(Br)cc1,"inconclusive: 35.5 µM [inhibitor, single point]",
O=C(NNC(=O)c1ccc([N+](=O)[O-])o1)c1ccccc1,"inconclusive: 3.98 µM [activator, single point]",
O=C(Nc1ccncc1)c1ccccc1[N+](=O)[O-],"inconclusive: 14.1 µM [inhibitor, single point]",
CC1=C(C#N)C(c2cccnc2)C2=C(N1)c1ccccc1C2=O (configuration not stated),"inconclusive: 6.31 µM [inhibitor, full curve, poor fit]",
COc1cccc(CNC(=S)NC2CCCC2)c1,"inconclusive: 5.62 µM [inhibitor, single point]",

SMILES,Potency,"activity change, negative = inhibition"
Cc1nn(-c2ccccc2)c(Cl)c1/C=C1\SC(=S)NC1=O,"inconclusive: 11.2 µM [inhibitor, partial curve]",
CCCCCCCCn1c2c(c(=N)c3c1CCC3)CCCC2,"inconclusive: 1.41 µM [inhibitor, partial curve]",
CC(=O)NC1=NC(=O)/C(=C/N2CCOCC2)S1,"inconclusive: 1.26 µM [inhibitor, single point]",
O=C(CSc1ccc2ccccc2c1)NCc1cccs1,,inactive: 1.37%
COc1ccc(C)cc1-n1c(C)cc(C=O)c1C,,inactive: 0.212% [at 9.22 µM]
Cc1ccc(CN(Cc2cccnc2)C(=S)Nc2cc(Cl)ccc2C)cc1,"inconclusive: 10 µM [inhibitor, single point]",
Brc1ccc(-c2nnc(Cc3ccccc3)o2)cc1,,inactive: 16.5% [at 9.22 µM]
CCN(CC)c1ccc(CNc2nc3ccccc3n2CCN2CCCCC2)cc1,"inconclusive: 11.2 µM [inhibitor, single point]",
CC(C)C(=O)NC(c1ccco1)c1ccc2cccnc2c1O (configuration not stated),active: 3.98 µM,
O=C1c2ccccc2C(=O)N1OCc1ccccc1[N+](=O)[O-],"inconclusive: 2.51 µM [activator, full curve, poor fit]",
CCOc1ccc(C(=O)N2CCN(c3cccc(Cl)c3)CC2)cc1,,inactive: -11.2%
C/C(CC(=O)Nc1ccc(Cl)c(C(F)(F)F)c1)=N\NC(=O)c1cc2ccccc2cc1O,"inconclusive: 31.6 µM [inhibitor, single point]",
COc1oc(-c2ccccc2C)nc1C(F)(F)F,"inconclusive: 11.2 µM [activator, partial curve, poor fit]",
COc1ccc(CCn2c(N3CCN(Cc4ccccc4)CC3)nc3c2c(=O)[nH]c(=O)n3C)cc1,"inconclusive: 0.562 µM [activator, full curve]",
COc1ccc(C(=O)N2CCN(S(=O)(=O)c3ccccc3)CC2)c(OC)c1,"inconclusive: 35.5 µM [inhibitor, single point]",
Cc1cc(C)c(N2CCN(S(=O)(=O)N3CCCCCC3)CC2)c(C)c1,"inconclusive: 25.1 µM [inhibitor, single point]",
N#C/C(=C\c1c[nH]c2ccccc12)c1nnc2n1CCCCC2,"inconclusive: 35.5 µM [inhibitor, single point]",
Cc1cc2cc3c(cc2nc1SCC(=O)Nc1nc(C)c(C)s1)OCO3,,inactive: 9.97%
COc1cc(NC(=O)c2csc(-c3ccncc3)n2)cc(C(=O)Nc2cccc(C(F)(F)F)c2)c1,,inactive: -32.9% [at 9.22 µM]
COc1cc(/C=N/NC(=O)c2cccnc2)ccc1OCC(=O)N1CCOCC1,"inconclusive: 3.16 µM [inhibitor, single point]",
Cc1ccc(NC(=S)NNC(=O)c2c(Cl)c(C)nn2C)cc1,"inconclusive: 35.5 µM [inhibitor, single point]",
O=C(c1ccco1)N1CCN(Cc2ccc(Cl)cc2)CC1,,inactive: -8.17%
CC1Cc2ccccc2N1c1ncnc2nc[nH]c12 (configuration not stated),active: 11.2 µM,

# In a second layout: results already given
SMILES	Potency	activity change, negative = inhibition
CCCCCCC1/C(=N/O)CCC1C(=O)OC (configuration not stated)	active: 3.98 µM	
CC1CCCC(n2c(=S)[nH]c3ccccc3c2=O)C1C (configuration not stated)	inconclusive: 11.2 µM [inhibitor, partial curve]	
O=C(NNC(=O)c1ccc([N+](=O)[O-])o1)c1ccccc1	inconclusive: 3.98 µM [activator, single point]	
Cc1nn(-c2ccccc2)c(Cl)c1/C=C1\SC(=S)NC1=O	inconclusive: 11.2 µM [inhibitor, partial curve]	
O=C(CSc1ccc2ccccc2c1)NCc1cccs1		inactive: 1.37%
CC(C)C(=O)NC(c1ccco1)c1ccc2cccnc2c1O (configuration not stated)	active: 3.98 µM	
C/C(CC(=O)Nc1ccc(Cl)c(C(F)(F)F)c1)=N\NC(=O)c1cc2ccccc2cc1O	inconclusive: 31.6 µM [inhibitor, single point]	
O=C(c1ccco1)N1CCN(Cc2ccc(Cl)cc2)CC1		inactive: -8.17%
CC1Cc2ccccc2N1c1ncnc2nc[nH]c12 (configuration not stated)	active: 11.2 µM	
